Publication PMC12789522
No constants are given. Whether binding was seen depends on the method and setting. Some results given as binding are weak or reduced against the parent protein; the word gives no strength.

Biological target: T1, Sas3 (residues 105-831), catalytic subunit of the NuA3 complex (S. cerevisiae) (UniProt P34218)
T1 sequence: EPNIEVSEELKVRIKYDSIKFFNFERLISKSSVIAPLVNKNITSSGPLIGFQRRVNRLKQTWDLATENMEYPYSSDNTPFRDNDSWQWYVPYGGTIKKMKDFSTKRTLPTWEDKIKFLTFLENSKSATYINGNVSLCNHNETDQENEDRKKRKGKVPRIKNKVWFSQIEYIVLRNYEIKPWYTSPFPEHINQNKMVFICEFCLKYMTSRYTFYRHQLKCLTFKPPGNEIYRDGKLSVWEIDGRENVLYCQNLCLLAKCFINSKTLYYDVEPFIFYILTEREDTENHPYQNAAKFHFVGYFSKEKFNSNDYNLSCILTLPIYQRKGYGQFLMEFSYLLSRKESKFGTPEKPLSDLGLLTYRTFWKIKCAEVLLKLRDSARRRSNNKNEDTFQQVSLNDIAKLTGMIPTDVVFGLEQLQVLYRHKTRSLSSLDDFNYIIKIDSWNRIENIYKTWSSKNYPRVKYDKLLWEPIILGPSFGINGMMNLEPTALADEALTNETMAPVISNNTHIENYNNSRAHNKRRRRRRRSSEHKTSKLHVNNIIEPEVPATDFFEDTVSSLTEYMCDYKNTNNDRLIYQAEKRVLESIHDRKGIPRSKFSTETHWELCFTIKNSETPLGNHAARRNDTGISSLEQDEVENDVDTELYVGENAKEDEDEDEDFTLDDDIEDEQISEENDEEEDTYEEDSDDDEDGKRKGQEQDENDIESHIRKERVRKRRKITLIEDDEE
Assay: co-purification (anti-FLAG affinity, then size-exclusion chromatography); six subunits co-expressed in High Five cells; lysate on anti-FLAG G1 resin (Sas3-FLAG), eluted with FLAG peptide, Superose 6 Increase; SDS-PAGE of the purified complex

- binding: binds
B1: Pdp3, subunit of the NuA3 complex (protein, UniProt Q06188 1-304)
chain: MTKDIRTGDLVLCKVGSFPPWPAVVFPQRLLRNDVYRKRKSNCVAVCFFNDPTYYWEQPSRLKELDQDSIHNFILEHSKNANQRELVNAYKEAKNFDDFNVFLQEKFEEENRLSDLKAFEKSEGSKIVAGEDPFVGRTKVVNKRKKNSISIKEDPEDNQKSNEEESKPNIKPSKKKRPTANSGGKSNSGNKKKVKLDYSRRVEISQLFRRRIQRNLIQRETPPTEHEIKETHELLNRIYENSDTKRPFFDLKALRESKLHKLLKAIVNDPDLGEFHPLCKEILLSWADLITELKKEKLQALPTP
